# Laboratory results reported in patent US20110065675A1, “AZO DYE RELATED SMALL MOLECULE MODULATORS OF PROTEIN-PROTEIN INTERACTIONS” (University of Miami, priority 2008, published 2011).
# Some of these results come from one statement about several compounds together. At least one compound was matched to its structure with a doubt left. Some compounds share one range, which may span the group rather than tell each member.
# How the values were obtained:
# human CD19+ B cells = experiment: Inhibition of CD154-induced human B-cell proliferation (BrdU ELISA); format: cell-based; conditions: 48 h + 48 h BrdU
# Description: CD40 stimulation is an important proliferation signal for human B cell proliferation (Fecteau et al., “CD40 stimulation of human peripheral B lymphocytes: distinct response from naive and memory cells. J. Immunol., vol. 171, pp. 4621-4629, 2003; Wiesner et al., “Conditional immortalization of human B cells by CD40 ligation,” PLoS ONE, vol. 3, pp. e1464, 2008), and soluble CD154 (CD40 ligand) can dose-dependently induce the proliferation of human CD19^+ B cells as measured by standard proliferation .assays. To verify that this effect is inhibited by the present compounds, human CD19^+ B cells were cultured in 96 wells tissue culture plates for 48 hours in the presence of CD154 and various concentrations of test compounds (including the anti-CD154 antibody as positive control), and then for another 48 hours in the presence of BrdU to asses proliferation and to compare it to negative and positive controls, respectively.
# The detailed procedure is as follows: Frozen MPB CD19^+ B lymphocytes (approximately 10^6 cells per vial) were obtained from StemCells Technologies (Vancouver, Canada), thawed in a 37° C. water bath until no crystal piece was left, and the cell suspension was transferred to a 50 mL conical tube. The vial was rinsed with warm IMDM medium (Invitrogen) supplemented with 10% FBS (Invitrogen), 10 μg/mL of recombinant Human IL-4 (R&D Systems), 100 U/mL penicillin and streptomycin 100 μg/mL (Invitrogen) and IX of insulin-transferrin-selenium-G supplement (Invitrogen). […] This was repeated, the cells were counted, and the concentration of viable cells was adjusted to approximately 1×10^6 cells/mL. […] A colorimetric cell proliferation ELISA BrdU from Roche Applied Science (Indianapolis, Ind.) was used as immunoassay for quantification of cell proliferation based on the measurement of BrdU incorporation during DNA replication. […]
# human CD40/CD154 = molecular target: T1, human CD40/CD154 (Homo sapiens, UniProt P29965); experiment: Human CD40/CD154 binding inhibition assay (cell-free, plate-based); conditions: essentially inactive compounds
# T1 construct: CD154 (soluble human, FLAG-tagged, recombinant from Alexis Biochemicals; MW=18 kDa); purchased Alexis Biochemicals
# T1 sequence (P29965 113-261 limits assumed): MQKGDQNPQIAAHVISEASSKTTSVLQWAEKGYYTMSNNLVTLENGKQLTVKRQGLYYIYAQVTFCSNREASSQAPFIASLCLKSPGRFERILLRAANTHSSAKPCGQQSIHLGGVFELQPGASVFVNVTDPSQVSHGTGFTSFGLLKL
# Protocol: A 96-well plate-based cell-free in vitro binding inhibition assay, which is a modification of an assay described in U.S. Pat. No. 7,173,046, incorporated by reference in its entirety, has been developed and used for activity screening. Briefly, CD40 is coated at a preselected concentration, and binding of (FLAG-tagged) CD154 is measured by reacting with secondary antibody and using TMB liquid substrate system as a substrate for horseradish peroxidase for reading at 450 nm. The detailed procedure is as follows: Microtiter plates (Nunc F MaxiSorp) were coated with […] of CD40: Fc (human:Fc human, recombinant from Alexis Biochemicals; MW=54 kDa) diluted in PBS pH 7.2 at a preselected concentration of 0.3125 μg/mL. Plates were covered with plate sealer and stored overnight at 4° C. The liquid was removed from the plates and blotted dry. Plates were blocked by washing once with approx. 300 μL/well of Blocking Solution (PBS pH 7.2, 0.05% Tween-20, 1% BSA) and incubated with the same solution for 1 hour at room temperature (RT) or at 4° C. overnight. […] Bound CD154 was detected with 200 μL/well of secondary antibody mAb ANTI-FLAG M2—Peroxidase Conjugate (anti-FLAG M2-peroxidase HRP conjugate; Sigma-Aldrich) diluted 1:40,000 in Washing Solution. […] The reaction was stopped with 0.5 M H2SO4 and read at 450 nm. […]
Molecule,IC50 (human CD19+ B cells) [µM],IC50 (human CD40/CD154) [µM]
"Cc1cc(S(=O)(=O)[O-])ccc1N=Nc1ccc(N=Nc2c(O)ccc3cccc(S(=O)(=O)[O-])c23)c(C)c1.[Na+].[Na+] [Crocein scarlet 7B, crocein scarlet 7B]",50 to 100,
"Nc1ccc2cc(S(=O)(=O)[O-])cc(O)c2c1N=Nc1ccc(NC(=O)Nc2ccc(N=Nc3c(N)ccc4cc(S(=O)(=O)[O-])cc(O)c34)c(S(=O)(=O)[O-])c2)cc1S(=O)(=O)[O-].[Na+].[Na+].[Na+].[Na+] [Direct red 75 (chlorazol fast pink), direct red 75]",50 to 100,
"Nc1c(N=Nc2ccc([N+](=O)[O-])cc2)c(S(=O)(=O)O)cc2cc(S(=O)(=O)O)c(N=Nc3ccccc3)c(O)c12 [naphthol blue black, reference compound]",,> 1000
direct red 13,50 to 100,
